This is one part of the list. Shown are side measurements of this screen, not its main read-out; they come without a call. Compounds called inactive in the main read-out are mostly missing here. Potencies come from curve fits of mixed quality, noted in brackets.

The assay can be described thus: qHTS Assay to Find Inhibitors of Chronic Active B-Cell Receptor Signaling. Particulars: ABC-DLBCL IkBa-CBG/CBR reporter, luminescence ratio (green luciferase fused to IkBa over red control in TMD8 lymphoma cells), 4 h. The gist of the method: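 Compounds up to 46 uM were incubated four hours with TMD8 cells whose green CBG68 luciferase is fused to IkappaBalpha; red CBR luminescence normalised the signal, and concentration-effect curves were fitted to fusion, red and ratio data.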
(In general: In qHTS, concentration-response curves come from the screen itself.)

Setting [1] is: measured here: CBR red luminescence, cell number.
Where [2] appears, read: measured here: IkBa-CBG green luminescence.

One may read the AC50 as the concentration at which the activity in the assay is half-maximal. On to `Cc1ccc(C(=O)Nc2nnc(-c3ccncc3)o2)cc1`, for which the concentration at half-maximal activity (AC50) by setting is: under setting [1], 11.2 µM [falling, single point]; under setting [2], 25.1 µM [falling, single point].
On to `COc1ccc(C2CC(c3ccccc3)=NN2c2ccc(/C=N/NC(=O)c3ccncc3)cc2)cc1` (stereo unspecified), for which, under setting [1], the AC50 is 3.98 µM [rising, full curve, poor fit].
As for `CCN1CCN(c2ncnc3c2cnn3-c2cccc(C)c2)CC1`, the AC50 under setting [1] was 25.1 µM [falling, single point].
Same read-out and setting: the value for `CN(C)CCC=C1c2ccccc2C=Cc2ccccc21` was 29.1 µM [falling, single point].
Turning to `CC(C)Nc1nc(NC(C)C)nc(N(C#N)CCOc2ccc(Cl)cc2Cl)n1`, the AC50 under setting [2] was 25.9 µM [rising, partial curve, poor fit].
Regarding `CCOc1cc(C)c(C(C)C)cc1S(=O)(=O)n1cnc(C)c1`, under setting [1], the AC50 was 12.6 µM [falling, partial curve].
`Cc1ccc(N2C(=O)N3[C@H](c4ccc(F)cc4)[C@@H]4C(=O)N(C5CCCCC5)C(=O)[C@@H]4[C@]3(C)C2=O)cc1`: the AC50 under setting [1] is 12.6 µM [falling, partial curve].
Same read-out and setting: the value for `O=C(CSc1ncccc1C(=O)Oc1ccccc1Cl)Nc1ccccc1Cl` was 1.26 µM [rising, partial curve, poor fit]; that for `O=C(Cc1ccc(F)cc1)OCN1C(=O)c2ccccc2C1=O` was 35.5 µM [falling, single point]; that for `COc1ccc(OC)c(-c2csc(N(C)C(=O)Cc3ccccc3)n2)c1` was 0.178 µM [rising, full curve, poor fit].
Same read-out and setting: the value for `O=C1CCc2cc(S(=O)(=O)NC(C(=O)N3CCN(c4ccccn4)CC3)c3ccccc3)ccc2N1` (stereo unspecified) was 12.6 µM [falling, partial curve, poor fit].
For the molecule `N#C/C(=C\c1ccc(C#N)cc1)C(=O)c1ccccc1`, the concentration at half-maximal activity (AC50) under setting [1] is 4.47 µM [falling, full curve, poor fit].
`Cc1c(Cl)cccc1NC(=O)CSc1nc(=O)n(Cc2ccco2)c2c1CCC2`: under setting [1], the AC50 was 25.1 µM [falling, single point].
On to `CCOC(=O)N1CCN(C(=O)c2ccc3nc4ccc(Cl)cc4c(=O)n3c2)CC1`, for which the AC50 under setting [1] is 6.51 µM [rising, full curve, poor fit].
Take `CC(=O)Nc1nc(C2COc3ccccc3O2)cs1` (stereo unspecified): the AC50 under setting [1] was 0.103 µM [rising, full curve, poor fit].
Take `COC(=O)c1c(C)[nH]c(C(=O)OCC(=O)NCC(C)C)c1C`: the AC50 under setting [1] was 14.6 µM [falling, partial curve, poor fit].
On the same count and under the same terms, the same measure for `COC(=O)C(NC(=O)c1ccccc1C)(Nc1ncc(S(=O)(=O)c2ccc([N+](=O)[O-])cc2)s1)C(F)(F)F` (stereo unspecified): 35.5 µM [falling, single point]; for `COc1ccc(C(=O)N/N=C/c2sc(=O)n(Cc3cccc(C(=O)O)c3)c2Cl)cc1`: 10 µM [falling, partial curve, poor fit]; for `Brc1ccc(-c2ccc(/C=N/Nc3nncc(-c4ccccc4)n3)o2)cc1`: 2.59 µM [falling, full curve, poor fit].
Same read-out and setting: the same measure for `COc1ccccc1N1CCN(C(=O)CSc2ncnc3scc(-c4ccccc4)c23)CC1`: 0.231 µM [rising, full curve, poor fit].
Still for that read-out and setting: the value for `COc1ccccc1CNCC(O)(c1ccc(F)cc1)c1ccc(F)cc1` was 17.8 µM [falling, single point].
With `Cc1nc2c(cnn2-c2ccccc2)c(=O)n1/N=C/c1ccccc1`, the AC50 under setting [1] is 35.5 µM [rising, single point].
On the same count and under the same terms, the value for `Cc1cc(NC(=O)CSCC(=O)Nc2nc3c(C)cccc3s2)no1` was 11.6 µM [falling, partial curve, poor fit].
On the same count and under the same terms, the same measure for `Cc1cc(NCc2ccco2)nc2cc(O)ccc12`: 11.6 µM [rising, partial curve].
Regarding `COc1ccc(OCC(=O)Nc2cccc(OC)c2)cc1`, the concentration at half-maximal activity (AC50) runs as follows: under setting [1], 4.61 µM [falling, full curve]; under setting [2], 29.1 µM [rising, partial curve, poor fit].
On to `Cc1ccc(S(=O)(=O)c2nc(-c3ccccc3Cl)oc2NCCCN2CCOCC2)cc1`, for which the half-maximal activity concentration (AC50) under setting [1] was 7.08 µM [falling, partial curve].
Still for that read-out and setting: the same measure for `c1ccc2c(c1)OCC(CNCC1COc3ccccc3O1)O2` (stereo unspecified): 20 µM [rising, partial curve, poor fit].
Turning to `Cc1nnc2ccc(-c3ccc(NS(=O)(=O)c4ccc(F)cc4F)cc3)nn12`, the half-maximal activity concentration (AC50) is, setting by setting: under setting [1], 14.6 µM [rising, partial curve]; under setting [2], 16.4 µM [falling, partial curve, poor fit].
With `Cn1ccnc1Sc1ccc(/C=N/NC(=O)c2ccccc2O)cc1[N+](=O)[O-]`, the half-maximal activity concentration (AC50) under setting [1] is 16.4 µM [falling, partial curve].
Take `CSCCC(NC(N)=O)C(=O)NCc1cccc(Cl)c1` (stereo unspecified): the AC50 under setting [1] is 2.06 µM [rising, partial curve, poor fit].
Take `Cc1ccc(NC(=O)CSc2nnc(-c3n[nH]c4ccccc34)n2-c2ccccc2)c(C)c1`: the AC50 under setting [1] is 13 µM [falling, partial curve] and the half-maximal activity concentration (AC50) under setting [2] is 14.6 µM [rising, partial curve, poor fit].
Take `Cc1cc(NS(=O)(=O)c2ccc(NC(=O)CCCOc3cccc(C)c3C)cc2)no1`: the AC50 under setting [1] was 15.8 µM [falling, partial curve, poor fit].
With `COc1ccc(C2=Nn3c(nnc3-c3ccccn3)SC2)cc1OC`, the AC50 reads like this: under setting [1], 35.5 µM [rising, single point]; under setting [2], 14.1 µM [falling, partial curve].
For `CCCCC1(C(=O)OC)NC(c2ccc(O)cc2)C2C(=O)N(c3ccccc3)C(=O)C21` (stereo unspecified), the concentration at half-maximal activity (AC50) under setting [1] is 35.5 µM [rising, partial curve, poor fit].
On the same count and under the same terms, the value for `CN1C(=O)c2cccc(NCCCN3C(=O)c4ccccc4C3=O)c2C1=O` was 29.1 µM [rising, single point]; that for `COC(=O)c1sc2nc(SCC(=O)N(C)c3ccccc3)n(N)c(=O)c2c1C` was 2.51 µM [rising, partial curve, poor fit].
As for `COc1ccc(/C(N)=N/OC(=O)/C=C/c2ccccc2)cc1`, the AC50 under setting [1] is 35.5 µM [rising, partial curve, poor fit].
For the molecule `Cc1ccc(S(=O)(=O)N2CCN(C(=O)C3CCCCC3)CC2)cc1`, the AC50 under setting [1] is 35.5 µM [falling, single point].
As for `COc1ccc(-c2ccnc3c(C#N)cnn23)cc1`, the half-maximal activity concentration (AC50) under setting [1] was 2.51 µM [rising, partial curve, poor fit].
On the same count and under the same terms, the same measure for `CCn1c(C(=O)OC)cc2c1ccn2-c1ccc(F)cc1`: 6.51 µM [falling, single point]; for `CC(=O)c1cc(CN2CCN(Cc3ccccc3)C(CCO)C2)cs1` (stereo unspecified): 0.631 µM [falling, partial curve, poor fit].
On to `Cc1ccc(C)c(Sc2ccc(S(=O)(=O)Nc3ccc(C(=O)O)cc3)cc2)c1`, for which, under setting [1], the AC50 was 16.4 µM [rising, single point].
The same measure, in the same setting: the same measure for `CCN(CC)S(=O)(=O)c1cc(C)c(C)cc1Br`: 16.4 µM [rising, partial curve]; for `CCCCn1c(=O)cc(N2CCOCC2)[nH]c1=O`: 0.0231 µM [rising, full curve, poor fit].
Turning to `CCn1c(=O)c(C(=O)Nc2ccsc2C(=O)OC)c(O)c2ccccc21`, the AC50 under setting [1] is 0.116 µM [falling, full curve].
On the same count and under the same terms, the same measure for `CCOc1ccccc1N(C(=O)Nc1cccc(Cl)c1)C1=NC(C)CS1` (stereo unspecified): 25.9 µM [rising, single point].
`CCCOc1ccc(CCN2CCC(=O)NC2=O)cc1C`: the concentration at half-maximal activity (AC50) under setting [1] was 14.1 µM [rising, partial curve, poor fit].
Still for that read-out and setting: the value for `COc1cccc(C2NC(=O)NC(C)=C2C(=O)Nc2ccc(C)cc2)c1OC` (stereo unspecified) was 25.1 µM [falling, single point]; that for `CCCN(CCC)S(=O)(=O)c1ccc(NS(C)(=O)=O)cc1` was 8.2 µM [rising, partial curve, poor fit].
For `CC(=O)c1cccc(S(=O)(=O)N2CCC(C(=O)Oc3ccc(-c4nnco4)cc3)CC2)c1`, under setting [1], the AC50 was 6.51 µM [falling, partial curve].
Still for that read-out and setting: the same measure for `CN(C)S(=O)(=O)NCc1ccc2c(c1)OCO2`: 0.731 µM [falling, partial curve, poor fit].
With `C/C(=N\S(=O)(=O)c1ccc(C)cc1)N1CCCCC1`, the AC50 under setting [1] is 17.8 µM [rising, single point].
Consider `Cc1cccc(NC(=O)c2ccc(C(=O)Nc3cccc(C)c3)nc2)c1`, for which, under setting [2], the AC50 was 5.8 µM [falling, full curve].
Consider `CC12CCC(C(=O)NNc3ccc([N+](=O)[O-])cc3)(OC1=O)C2(C)C` (stereo unspecified), for which the half-maximal activity concentration (AC50) under setting [1] was 2.24 µM [rising, partial curve, poor fit].
Take `CCn1nc(C(=O)Nc2cccc(C(F)(F)F)c2)c(Cl)c1Cl`: the AC50 under setting [1] was 2.51 µM [rising, partial curve, poor fit].
Regarding `O=C(NCc1cccnc1)Nc1ccc(Br)cc1`, under setting [1], the AC50 was 0.794 µM [rising, full curve, poor fit].
As for `O=C(COC(=O)c1ccc(Cl)nc1)Nc1nnc(-c2ccccc2)o1`, the half-maximal activity concentration (AC50) under setting [1] was 14.6 µM [falling, partial curve].
Still for that read-out and setting: the same measure for `O=C(N/N=C/c1ccc(O)cc1)c1cccc(N/N=C/c2ccc(O)cc2)c1`: 7.94 µM [falling, partial curve, poor fit]; for `Cc1c(Cl)cccc1NC(=O)CNC(=O)C1CCN(C(=O)Nc2ccccc2)CC1`: 29.1 µM [rising, single point]; for `Oc1ccc2[nH]cnc2c1CN1CCCCC1`: 0.517 µM [falling, full curve, poor fit].
In the case of `O=C(Nc1cccn(Cc2c(F)cccc2Cl)c1=O)NC1CCCCC1`, the AC50 under setting [1] was 3.98 µM [falling, single point].

(Values after PubChem BioAssay AID493014 (National Center for Advancing Translational Sciences (NCATS), 2011).)
